Results deposited as PubChem BioAssay AID1259308 (NCATS, 2017)

Test: 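Candidate targets for better recombinant protein yield in mammalian cells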 (primary screen)
System: human HEK293 embryonic kidney cells stably expressing firefly luciferase (HEK-CMV-Luc2-Hygro)
Knock-down reagent: single siRNA against human genes, 0.8 pmol siRNA per well
Timing: 72 h
Measured: 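Luciferase light (ONE-Glo) measured on one replicate plate set and viability (CellTiter-Glo) on the other, scaled to a negative control siRNA, with robust z-scores and luciferase per cell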
Scale: total luciferase, z-score and total luciferase, % of control: higher = more reporter protein produced; luciferase per cell, z-score: higher = more reporter output per viable cell; viable cells, % of control: higher = more viable cells
Hit rule: 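An siRNA counts as active if its total luciferase robust z-score exceeds 3; genes with two or more such siRNAs out of three were retested with fresh siRNAs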
Meaning of the calls: active = raised luciferase; inactive = no rise
This is an unselected part of about 59,000 reagents tested. Over the whole deposit, about 1,510 (2.6%) were called active. 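Calls use total luciferase alone and ignore viability, so some active siRNAs may act by altering cell number.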 The numbers tell different reagents against one gene apart.

no.	gene knocked down	siRNA no.	total luciferase, z-score	total luciferase, % of control	luciferase per cell, z-score	viable cells, % of control	Call
1	FCHSD1 (FCH and double SH3 domains 1)	1	0.49	91.6	0.239	96.1	inactive
2	FCHSD1 (FCH and double SH3 domains 1)	2	0.752	96.8	0.78	88.1	inactive
3	FCHSD1 (FCH and double SH3 domains 1)	3	-0.364	74.6	-0.402	92.7	inactive
4	SPEN-AS1 (SPEN antisense RNA 1)	1	1.01	102	1.04	86.7	inactive
5	SPEN-AS1 (SPEN antisense RNA 1)	2	0.714	96.1	0.784	87.3	inactive
6	SPEN-AS1 (SPEN antisense RNA 1)	3	-0.262	76.7	0.0146	85.3	inactive
7	SPEN-AS1 (SPEN antisense RNA 1)	4	-0.609	69.8	-0.68	93.3	inactive
8	SPEN-AS1 (SPEN antisense RNA 1)	5	-1.73	47.5	0.603	45.3	inactive
9	SPEN-AS1 (SPEN antisense RNA 1)	6	0.336	88.6	0.284	91.9	inactive
10	KRTAP19-8 (keratin associated protein 19-8)	1	0.538	92.6	0.824	83.3	inactive
11	KRTAP19-8 (keratin associated protein 19-8)	2	-0.429	73.3	-0.245	87.4	inactive
12	KRTAP19-8 (keratin associated protein 19-8)	3	-2.08	40.4	-1.52	67.4	inactive
13	RPL6P31 (ribosomal protein L6 pseudogene 31)	1	0.0277	82.4	0.000569	92.1	inactive
14	RPL6P31 (ribosomal protein L6 pseudogene 31)	2	-0.584	70.3	0.446	69.8	inactive
15	RPL6P31 (ribosomal protein L6 pseudogene 31)	3	0.469	91.2	0.194	96.9	inactive
16	RPS6KA4 (ribosomal protein S6 kinase A4)	1	0.614	94.1	0.876	83.5	inactive
17	RPS6KA4 (ribosomal protein S6 kinase A4)	2	0.183	85.5	0.262	89.2	inactive
18	RPS6KA4 (ribosomal protein S6 kinase A4)	3	0.323	88.3	1.12	73.5	inactive
19	BACH1 (BTB domain and CNC homolog 1)	1	0.518	92.2	-0.475	117	inactive
20	BACH1 (BTB domain and CNC homolog 1)	2	-0.702	67.9	-0.69	91	inactive
21	BACH1 (BTB domain and CNC homolog 1)	3	-0.171	78.5	-0.55	101	inactive
22	SLC39A11	1	-0.283	76.3	0.349	77.7	inactive
23	SLC39A11	2	-0.395	74	-0.103	85	inactive
24	SLC39A11	3	0.277	87.4	0.654	82.2	inactive

Records listed so far whose gene name starts with F or f:
gene knocked down	siRNA no.	total luciferase, z-score	total luciferase, % of control	luciferase per cell, z-score	viable cells, % of control	Call
FCHSD1 (FCH and double SH3 domains 1)	1	0.49	91.6	0.239	96.1	inactive
FCHSD1 (FCH and double SH3 domains 1)	2	0.752	96.8	0.78	88.1	inactive
FCHSD1 (FCH and double SH3 domains 1)	3	-0.364	74.6	-0.402	92.7	inactive
